Values of other authors as cited in patent US20080004266A1, “Method for treating proliferative disorders associated with protooncogene products” (priority 2006, published 2008).
For at least one compound, name, drawing or mass did not settle the structure.

Test system: Bcr-Abl
Conditions: cited from earlier work

Structure (SMILES): COC1=C2C[C@@H](C)C[C@H](OC)[C@H](O)[C@@H](C)/C=C(\C)[C@H](OC(N)=O)[C@@H](OC)/C=C\C=C(/C)C(=O)NC(=CC1=O)C2=O [geldanamycin]
- degradation of Bcr-Abl: proteasomal degradation of Bcr-Abl
